Measured values from patent publication US20060222587A1, “Hybrid inorganic nanoparticles, methods of using and methods of making” (priority 2005, published 2006).

Test: 19F spectra of neat nanoparticles versus 1000 mM NaF in aqueous solution
Conditions: equal volumes, 90° block pulse, center frequency approx. midway between resonant frequencies, 188.34 MHz

**Q.** With `[F-].[Na+]` [NaF, sodium fluoride] as the molecule, how does the Integrated peak intensities read?
**A.** 7.55 relative units
